Reference: patent US20230146455A1 (Yuyu Pharma, Inc., priority 2020, published 2023)
Values joined by “and” are separate entries in the source; they are usually repeats but may differ in a detail not shown here. Equal entries are not always repeated. Where a SMILES comes first, the peptide text is derived from it. [ ]: non-standard residue; d: D form. Hyp = O=C(O)[C@@H]1C[C@@H](O)CN1

Key:
Format in all cases: cell-based, human
IL-8 = test: Example 9 Luminex, LPS hPBMCs: IL-8; settings: Bead IL-8
Procedure: (§1) Treatment Human PBMCs were pretreated with YY-101, YDE-011 and YDE-043 or reference compound; Xiidra® at various concentration (ranging from 1 nM to 100 uM) for 2 h before stimulation. An equal volume of 0.5% DMSO was used as a vehicle control. Then, the cells were treated with LPS at 5 ug/ml. The supernatants from treated cells were harvested at 24 h and placed in a 96 well for Luminex cytokine & chemokine profiling using a Luminex 200 multiplex assay (Luminex; R&D system, USA).
(§2) The main study arm with triplicate wells per group in a 24-well plate: • 1. Blank • 2. PBMC: 0.5% DMSO • 3. PBMC+LPS (5 ug/ml) • 4. PBMC+YY-101 100 uM • 5. PBMC+YY-101 10 uM • 6. PBMC+YY-101 1 uM • 7. PBMC+YY-101 0.1 uM • 8. PBMC+YY-101 0.01 uM • 9. PBMC+LPS (5 ug/ml)+Xiidra®100 uM • 10. PBMC+LPS (5 ug/ml)+Xiidra® 10 uM • 11. PBMC+LPS (5 ug/ml)+Xiidra® 1 uM • 12. PBMC+LPS (5 ug/ml)+Xiidra®0.1 uM • 13. PBMC+LPS (5 ug/ml)+Xiidra®0.01 uM • 14. PBMC+LPS (5 ug/ml)+Xiidra®0.001 uM • 15. PBMC+LPS (5 ug/ml)+YY-101 100 uM • 16. PBMC+LPS (5 ug/ml)+YY-101 10 uM • 17. PBMC+LPS (5 ug/ml)+YY-101 1 uM • 18. PBMC+LPS (5 ug/ml)+YY-101 0.1 uM • 19. PBMC+LPS (5 ug/ml)+YY-101 0.01 uM • 20. PBMC+LPS (5 ug/ml)+YY-101 0.001 uM • 21. PBMC+LPS (5 ug/ml)+YDE-011 100 uM • 22. PBMC+LPS (5 ug/ml)+YDE-011 10 uM • 23. PBMC+LPS (5 ug/ml)+YDE-011 1 uM • 24. PBMC+LPS (5 ug/ml)+YDE-011 0.1 uM • 25. PBMC+LPS (5 ug/ml)+YDE-011 0.01 uM • 26. PBMC+LPS (5 ug/ml)+YDE-011 0.001 uM • 27. PBMC+LPS (5 ug/ml)+YDE-043 100 uM • 28. PBMC+LPS (5 ug/ml)+YDE-043 10 uM • 29. PBMC+LPS (5 ug/ml)+YDE-043 1 uM • 30. PBMC+LPS (5 ug/ml)+YDE-043 0.1 uM • 31. PBMC+LPS (5 ug/ml)+YDE-043 0.01 uM • 32. PBMC+LPS (5 ug/ml)+YDE-043 0.001 uM
(§3) Multiplex assay was used to measure 30 cytokines and chemokines. The 1:2, 1:10 and 1:200 diluted cell supernatant and serial dilution of the standard were dispensed into a 96 well plate at 50 ul/well. Then, the pre-mixed cocktail of antibody-coated magnetic beads was dispensed at 50 ul/well and incubated at room temperature for 2 h in a horizontal orbital microplate shaker at 800±500 rpm. The beads were washed using a magnetic device to prevent loss. The biotin-antibody was dispensed in 50 ul of each well and incubated at room temperature for 1 h in a shaker at 800±500 rpm. After washing, streptavidin-PE was added at 50 ul/well and incubated at room temperature for 30 min in a shaker under the same conditions. Finally, after washing, wash buffer (100 ul/well) was added to the plate and incubated in a shaker for 2 min. The Luminex™ 200 setting were set according to the manufacturer's protocol. The data was calculated with a standard five-parameter logistic nonlinear regression analysis of the data (xPonent software 4.2, USA). The levels of cytokine/chemokine are normalized to the live cell counts (1×10^5 cells/mL) and presented as concentrations per mL (pg/mL or ng/mL).

CCL2/JE/MCP-1 = test: Example 9 Luminex, LPS hPBMCs: CCL2/JE/MCP-1; settings: Bead CCL2/JE/MCP-1
Procedure: as §1, §2, §3

CCL3/MIP-1 alpha = test: Example 9 Luminex, LPS hPBMCs: CCL3/MIP-1 alpha
Procedure: as §1, §2, §3

[1] = PBMC + LPS(5 ug/ml) + test article 0.001 uM, Mean
[2] = PBMC + LPS(5 ug/ml) + test article 0.001 uM, single replicates (1st, 2nd, 3rd)
[3] = PBMC + LPS(5 ug/ml) + test article 0.01 uM, Mean
[4] = PBMC + LPS(5 ug/ml) + test article 0.01 uM, single replicates (1st, 2nd, 3rd)
[5] = PBMC + LPS(5 ug/ml) + test article 0.1 uM, Mean
[6] = PBMC + LPS(5 ug/ml) + test article 0.1 uM, single replicates (1st, 2nd, 3rd)
[7] = PBMC + LPS(5 ug/ml) + test article 1 uM, Mean
[8] = PBMC + LPS(5 ug/ml) + test article 1 uM, single replicates (1st, 2nd, 3rd)
[9] = PBMC + LPS(5 ug/ml) + test article 10 uM, Mean
[10] = PBMC + LPS(5 ug/ml) + test article 10 uM, single replicates (1st, 2nd, 3rd)
[11] = PBMC + LPS(5 ug/ml) + test article 100 uM, Mean
[12] = PBMC + LPS(5 ug/ml) + test article 100 uM, single replicates (1st, 2nd, 3rd)
[13] = PBMC + LPS(5 ug/ml) + test article 0.001 uM, individual replicates
[14] = PBMC + LPS(5 ug/ml) + test article 0.01 uM, individual replicates
[15] = PBMC + LPS(5 ug/ml) + test article 0.1 uM, individual replicates
[16] = PBMC + LPS(5 ug/ml) + test article 1 uM, individual replicates
[17] = PBMC + LPS(5 ug/ml) + test article 10 uM, individual replicates
[18] = PBMC + LPS(5 ug/ml) + test article 100 uM, individual replicates

| Structure (SMILES) | MFI (IL-8; [1]) | MFI (IL-8; [2]) | MFI (IL-8; [3]) | MFI (IL-8; [4]) | MFI (IL-8; [5]) | MFI (IL-8; [6]) | MFI (IL-8; [7]) | MFI (IL-8; [8]) | MFI (IL-8; [9]) | MFI (IL-8; [10]) | MFI (IL-8; [11]) | MFI (IL-8; [12]) | MFI (CCL2/JE/MCP-1; [1]) | MFI (CCL2/JE/MCP-1; [13]) | MFI (CCL2/JE/MCP-1; [3]) | MFI (CCL2/JE/MCP-1; [14]) | MFI (CCL2/JE/MCP-1; [5]) | MFI (CCL2/JE/MCP-1; [15]) | MFI (CCL2/JE/MCP-1; [7]) | MFI (CCL2/JE/MCP-1; [16]) | other results |
| --- | --- | --- | --- | --- | --- | --- | --- | --- | --- | --- | --- | --- | --- | --- | --- | --- | --- | --- | --- | --- | --- |
| CC(C)C[C@H](NC(=O)[C@H](CCC(N)=O)NC(=O)CNC(=O)[C@@H]1C[C@@H](O)CN1)C(=O)NCC(=O)O [YDE-043] (H-[Hyp]GQLG-OH; N-terminus and C-terminus assumed) | 915.5 | 841.0 and 932.5 and 973.0 | 921.8 | 928.5 and 897.5 and 939.5 | 886.8 | 912.0 and 822.0 and 926.5 | 877.3 | 912.5 and 765.5 and 954.0 | 971.5 | 960.5 and 1141.5 and 812.5 | 847.0 | 895.5 and 798.5 | 7229.8 | 7127.0 and 7646.5 and 6916.0 | 6891.3 | 6942.0 and 6650.0 and 7082.0 | 6479.0 | 7234.0 and 5852.5 and 6350.5 | 7287.0 | 7486.0 and 7253.0 and 7122.0 | MFI (CCL2/JE/MCP-1; [9]): 5982.2; MFI (CCL2/JE/MCP-1; [17]): 6348.5 and 5845.0 and 5753.0; MFI (CCL2/JE/MCP-1; [11]): 319.5; MFI (CCL2/JE/MCP-1; [18]): 275.0 and 364.0; MFI (CCL3/MIP-1 alpha; [1]): 151.5; MFI (CCL3/MIP-1 alpha; [13]): 139.0 and 163.0 and 152.5; MFI (CCL3/MIP-1 alpha; [3]): 149.2; MFI (CCL3/MIP-1 alpha; [14]): 145.5 and 153.5 and 148.5; MFI (CCL3/MIP-1 alpha; [5]): 139.3; MFI (CCL3/MIP-1 alpha; [15]): 134.0 and 138.5 and 145.5; MFI (CCL3/MIP-1 alpha; [7]): 139.8; MFI (CCL3/MIP-1 alpha; [16]): 152.5 and 110.5 and 156.5; MFI (CCL3/MIP-1 alpha; [9]): 137.8; MFI (CCL3/MIP-1 alpha; [17]): 133.5 and 131.5 and 148.5; MFI (CCL3/MIP-1 alpha; [11]): 144.5; MFI (CCL3/MIP-1 alpha; [18]): 152.5 and 136.5 |
| CC(C)C[C@H](NC(=O)CNC(=O)[C@H](CC(C)C)NC(=O)[C@H](CCC(N)=O)NC(=O)CNC(=O)[C@@H]1C[C@@H](O)CN1)C(=O)N[C@@H](C)C(=O)NCC(=O)N1CCC[C@H]1C(=O)N[C@@H](CCCCN)C(=O)O [YDE-011] (H-[Hyp]GQLGLAGPK-OH) | 868.8 | 861.5 and 838.5 and 906.5 | 923.5 | 964.0 and 900.5 and 906.0 | 858.8 | 852.5 and 870.5 and 853.5 | 851.0 | 872.0 and 875.5 and 805.5 | 834.0 | 851.0 and 841.5 and 809.5 | 864.3 | 918.5 and 881.5 and 793.0 | 6316.7 | 6216.5 and 6415.5 and 6318.0 | 6695.0 | 6375.0 and 7050.0 and 6660.0 | 5603.7 | 5566.0 and 5817.0 and 5428.0 | 5970.2 | 5965.5 and 6315.0 and 5630.0 | MFI (CCL2/JE/MCP-1; [9]): 5002.5; MFI (CCL2/JE/MCP-1; [17]): 4743.0 and 5215.5 and 5049.0; MFI (CCL2/JE/MCP-1; [11]): 321.3; MFI (CCL2/JE/MCP-1; [18]): 262.0 and 360.0 and 342.0; MFI (CCL3/MIP-1 alpha; [1]): 132.7; MFI (CCL3/MIP-1 alpha; [13]): 134.5 and 126.5 and 137.0; MFI (CCL3/MIP-1 alpha; [3]): 136.8; MFI (CCL3/MIP-1 alpha; [14]): 137.5 and 134.5 and 138.5; MFI (CCL3/MIP-1 alpha; [5]): 118.3; MFI (CCL3/MIP-1 alpha; [15]): 113.5 and 127.0 and 114.5; MFI (CCL3/MIP-1 alpha; [7]): 135.0; MFI (CCL3/MIP-1 alpha; [16]): 129.5 and 138.0 and 137.5; MFI (CCL3/MIP-1 alpha; [9]): 143.2; MFI (CCL3/MIP-1 alpha; [17]): 152.5 and 128.5 and 148.5; MFI (CCL3/MIP-1 alpha; [11]): 153.0; MFI (CCL3/MIP-1 alpha; [18]): 164.5 and 157.0 and 137.5 |
